Paper PMC10214663
No constants are given. Whether binding was seen depends on the method and setting. Some results given as binding are weak or reduced against the parent protein; the word gives no strength. Where a sequence is shown, tags or fusion partners need not be part of it.

Experiments:
Experiment in all cases: overlay or dot blot; galectin array: recombinant galectins (0,5 pmol) dot-blotted on PVDF, blocked with 3% BSA, incubated overnight with FGFs-Fc or Fc (0,9 pM); anti-Fc mAb-HRP and chemiluminescence; with FGF4-Fc also done in the presence of lactose (Fig. S1); both purified
galectin-3 (human) = galectin-3 (human) (UniProt P17931)
galectin-7 (human) = galectin-7 (human) (UniProt P47929)
galectin-1 (human) = galectin-1 (human) (UniProt P09382)

Measured: binding

B1: FGF10-Fc (Fc fusion, UniProt O15520 38-208)
chain: QALGQDMVSPEATNSSSSSFSSPSSAGRHVRSYNHLQGDVRWRKLFSFTKYFLKIEKNGKVSGTKKENCPYSILEITSVEIGVVAVKAINSNYYLAMNKKGKLYGSKEFNNDCKLKERIEENGYNTYASFNWQHNGRQMYVALNGKGAPRRGQKTRRKNTSAHFLPMVVHS
modifications: N-glycosylated (two putative N-glycosylation sites; shift on PNGase F treatment)
binds: all assays above
